Experimental data published in PubChem BioAssay AID485314 (National Center for Advancing Translational Sciences (NCATS), 2010).
In all, about 340,000 compounds went through this assay and about 4,500 (1.3%) were called active. Inconclusive results, whose numbers are uncertain, are shown with a selection of clear calls. Calls come from the whole dose curve; as a rule, active = well fitted inhibition curve with a large enough effect; inconclusive = small, poorly fitted or top-dose-only effect, or another doubt; inactive = no such curve, though single readings can be large or run the other way. Where the call is inconclusive, the potency comes from a doubtful curve fit.

target: DNA polymerase beta (Homo sapiens) (UniProt P06746); assay: qHTS Assay for Inhibitors of DNA Polymerase Beta; conditions: Pol beta primer extension/strand displacement, fluorescence kinetic; activity change, negative = inhibition: at 114 µM (top of the series)
Method in brief: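 Preincubation: enzyme (10 nM) with compound, 15 min, RT. Reaction: substrate added to 50 nM final. Reads: 0 and 10 min. Analysis: normalized, Hill fit.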
% is set by controls: 0 for no effect and ±100 for the full control effect; potency is the fitted concentration of half-maximal effect.

SMILES | Potency | activity change, negative = inhibition
COc1cc(/C=N\NC(=O)c2ccc(-c3ccccc3)cc2)cc(OC)c1O | active: 25.1 µM | –
O=C(N/N=C/C(Cl)=C/c1ccc([N+](=O)[O-])cc1)C(=O)Nc1cccc(C(=O)O)c1 | inconclusive: 28.2 µM [inhibitor, full curve] | –
Cc1cc(F)ccc1NC(=O)CCS(=O)(=O)c1cc2c3c(c1)CCN3C(=O)CC2 | – | inactive: 8.71%
O=C(CSc1nnc(SCc2ccccc2)s1)N/N=C/C=C/c1ccco1 | active: 10 µM | –
CSc1nc(NS(=O)(=O)c2cc(Br)ccc2Br)cc(=O)[nH]1 | inconclusive: 20 µM [inhibitor, partial curve] | –
CCN1CCN(CC(=O)Nc2sc3c(c2C#N)CCC3)CC1 | inconclusive: 79.4 µM [inhibitor, single point] | –
CC(C)Oc1ccc(CNC(=O)CN2C(=O)c3cccnc3Oc3ccc(Cl)cc32)cc1 | – | inactive: 1.3%
Cc1ccsc1C(=O)Nc1ccc(O)c(-c2nc3ccccc3s2)c1 | inconclusive: 31.6 µM [inhibitor, partial curve] | –
O=C(NCc1cccnc1)c1ccc(-c2cc3ccccc3oc2=O)cc1 | inconclusive: 79.4 µM [inhibitor, partial curve, poor fit] | –
Cc1ccc(NC(=O)CSc2nnc(-c3cc4occc4n3C)n2-c2ccccc2C)c(C)c1 | – | inactive: 19.7%
COc1ccc(CCNC(=O)c2c(N)no[n+]2[O-])cc1OC | inconclusive: 39.8 µM [inhibitor, single point] | –
O=C(c1ccc2c(c1)N(Cc1cccc(Cl)c1)C(=O)c1ccccc1S2(=O)=O)N1CCc2ccccc21 | – | inactive: -16.7%
COc1cc(Cl)c(C)cc1NC(=O)C1CCCN(c2ncnc3onc(-c4ccc(F)cc4)c23)C1 (stereo not drawn) | – | inactive: 0.687%
O=C(O)c1ccc(Cl)c(NCc2cccs2)c1 | inconclusive: 10 µM [inhibitor, partial curve] | –
O=C1c2ccccc2-c2onc3ccc(Oc4ccccc4)c1c23 | inconclusive: 79.4 µM [inhibitor, partial curve] | –
COC(=O)C1=C(C)NC(=O)/C1=C\c1ccco1 | inconclusive: 39.8 µM [inhibitor, single point] | –
CCOCCCNC(=O)c1c[nH]c2ccc(S(=O)(=O)Nc3cccc(Cl)c3C)cc2c1=O | active: 28.2 µM | –
CCN(CC)S(=O)(=O)c1ccc(NC(=O)Cn2c(=O)oc3ccccc32)cc1 | inconclusive: 0.631 µM [inhibitor, full curve] | –
O=C(C1COc2ccccc2O1)N1CCc2ccccc21 (stereo not drawn) | active: 31.6 µM | –
Cc1nn(Cc2ccc(F)cc2)c(C)c1NC(=O)c1cc(-c2ccco2)on1 | inconclusive: 28.2 µM [inhibitor, partial curve, poor fit] | –
O=C(CNS(=O)(=O)c1ccc(Br)cc1)OCc1cc(=O)n2cc(Br)ccc2n1 | active: 35.5 µM | –
Cc1cc2c(cc1S(=O)(=O)N(C)CC(=O)Nc1cccc(C#N)c1)OCC(=O)N2 | – | inactive: -1.75%
O=C(CCC(=O)NNC(=O)COc1ccc(Br)cc1)NCc1ccccc1 | inconclusive: 8.91 µM [inhibitor, full curve, poor fit] | –

SMILES | Potency | activity change, negative = inhibition
COc1ccccc1CCN=C(N)NS(=O)(=O)c1ccc(C)c(C)c1 | inconclusive: 79.4 µM [inhibitor, single point] | –
NS(=O)(=O)c1ccc(-c2ccc(/C=C3\SC(=O)NC3=O)o2)cc1 | inconclusive: 35.5 µM [inhibitor, full curve] | –
CCN(CC)c1ccc(NC(=O)CN2CCN(CC(=O)Nc3ccccc3OC)CC2)cc1 | inconclusive: 0.158 µM [inhibitor, full curve, poor fit] | –
COc1ccccc1C(=O)NCC1(N2CCN(C)CC2)CCCCC1 | – | inactive: 0.279%
O=C1CC(N2CCN(Cc3ccc(Cl)cc3)CC2)C(=O)N1CCc1ccccc1 (stereo not drawn) | inconclusive: 3.55 µM [inhibitor, full curve] | –
O=C(CCS(=O)(=O)c1ccccc1)Nc1ccc(Cl)cn1 | active: 31.6 µM | –
Cc1noc(C)c1Cc1c(Cl)cccc1Cl | – | inactive: 23.4%
Cc1ccc(C2CC(=O)Nc3cc4c(cc32)OCCO4)s1 (stereo not drawn) | inconclusive: 89.1 µM [inhibitor, single point] | –
CSc1cccc(Nc2cc(C(=O)NCCCN(Cc3ccccc3)C(C)C)c3ccccc3n2)c1 | inconclusive: 89.1 µM [inhibitor, single point] | –
COc1ccccc1Oc1ccc(N2CC(C(=O)OCC(=O)c3ccc(F)cc3)CC2=O)cc1 (stereo not drawn) | inconclusive: 15.8 µM [inhibitor, full curve] | –
OCC1(Cc2ccccc2)CCN(Cc2ccc(-c3ccco3)cc2)CC1 | inconclusive: 79.4 µM [inhibitor, single point] | –
CC1=C(C(=O)OCc2ccccc2)C(/C=C/c2ccccc2)N2C(=O)CCSC2=N1 (stereo not drawn) | inconclusive: 0.141 µM [inhibitor, full curve, poor fit] | –
COc1cccc(/C=N/NC(=O)c2[nH]nc3c2CCc2ccccc2-3)c1 | inconclusive: 0.316 µM [inhibitor, full curve, poor fit] | –
COc1cc(/C=N/NC(=O)c2ccc(NC(=O)C3CCCCC3)cc2)ccc1O | inconclusive: 15.8 µM [inhibitor, full curve] | –
c1ccc(CSc2ccc(-c3ccco3)nn2)cc1 | inconclusive: 10 µM [inhibitor, full curve, poor fit] | –
CCOc1cc(/C=C2\C(=N)N3N=C(N4CCCCC4)SC3=NC2=O)ccc1OC(=O)c1ccco1 | inconclusive: 89.1 µM [inhibitor, single point] | –
Cc1ccc(Cn2c(=O)n(CC3CCC(C(=O)N4CCOCC4)CC3)c(=O)c3sccc32)cc1 (stereo not drawn) | – | inactive: 18.5%
C/C=C\C=C/C(=O)Nc1cccc(C2=NOC3(C2)C[C@H](C(N)=O)N(C(=O)CC)C3)c1 (stereo partly drawn) | – | inactive: -2.27%
CC(C)S(=O)(=O)c1nsc2nc(=O)c(/C=C3\C=Nc4ccccc43)c(N)n12 | active: 39.8 µM | –
CN(C)CCCN1C(=O)c2cccc3c([N+](=O)[O-])ccc(c23)C1=O | inconclusive: 89.1 µM [inhibitor, single point] | –
COC(=O)c1cc2ccsc2n1CC(=O)N1CCCc2ccccc21 | inconclusive: 10 µM [inhibitor, full curve, poor fit] | –
O=C(O)C1C(c2ccccc2)C(C(=O)OCc2ccco2)C1c1ccccc1 (stereo not drawn) | inconclusive: 12.6 µM [inhibitor, full curve, poor fit] | –
CC1CCN(C(=S)NC2CCCCC2)CC1 | inconclusive: 89.1 µM [inhibitor, single point] | –

Some of these compounds in order of SMILES length, low to high:
SMILES | Potency | activity change, negative = inhibition
c1ccc(CSc2ccc(-c3ccco3)nn2)cc1 | inconclusive: 10 µM [inhibitor, full curve, poor fit] | –
Cc1ccc(C2CC(=O)Nc3cc4c(cc32)OCCO4)s1 (stereo not drawn) | inconclusive: 89.1 µM [inhibitor, single point] | –
CN(C)CCCN1C(=O)c2cccc3c([N+](=O)[O-])ccc(c23)C1=O | inconclusive: 89.1 µM [inhibitor, single point] | –
CCN(CC)c1ccc(NC(=O)CN2CCN(CC(=O)Nc3ccccc3OC)CC2)cc1 | inconclusive: 0.158 µM [inhibitor, full curve, poor fit] | –

The listing continues:

SMILES | Potency | activity change, negative = inhibition
CCOC(=O)Cc1csc(NC(=O)c2ccc(S(=O)(=O)N3CCCCC3)cc2)n1 | inconclusive: 39.8 µM [inhibitor, single point] | –
N=c1c(C(=O)NCc2ccc3c(c2)OCO3)cc2c(=O)n3ccccc3nc2n1Cc1cccnc1 | active: 39.8 µM | –
COc1cc(/C=C2/C(=N)N3C(=NC2=O)SN=C3S(C)(=O)=O)ccc1OS(=O)(=O)c1ccc(C)cc1 | inconclusive: 89.1 µM [inhibitor, single point] | –
O=C(Nc1ccc(C(F)(F)F)cc1)c1ccc(NC(=O)C2CCCO2)cc1 (stereo not drawn) | inconclusive: 31.6 µM [inhibitor, full curve] | –
O=C(O)CC1(CC(=O)Nc2ccccc2N2CCOCC2)CCCC1 | active: 10 µM | –
CCOC(=O)c1c(-c2ccc(F)cc2)csc1NC(=O)C1CC=CCC1C(=O)O (stereo not drawn) | inconclusive: 39.8 µM [inhibitor, single point] | –
Cc1ccc(-n2c(-c3ccccc3)n[nH]c2=S)c(C)c1 | – | inactive: 2.29%
Cc1ccc(CNCC(O)(c2ccccc2)c2ccc(F)cc2)cc1 (stereo not drawn) | inconclusive: 5.01 µM [inhibitor, full curve, poor fit] | –
CCC1(c2ccccc2)C(=O)NCNC1=O | inconclusive: 89.1 µM [inhibitor, single point] | –
Cc1cc(=O)[nH]c(Sc2c(-c3ccccc3)c3ccccc3[nH]c2=O)n1 | inconclusive: 39.8 µM [inhibitor, single point] | –
O=C(O)c1ccccc1C(=O)Nn1cnnc1 | – | inactive: 20.3%
CC(C)CC(=O)Nc1ccc(S(=O)(=O)NCc2ccco2)cc1 | inconclusive: 25.1 µM [inhibitor, full curve, poor fit] | –
Cc1[nH]n(-c2cccc3ccccc23)c(=O)c1/C=N/c1sc2c(c1C#N)CCC2 | inconclusive: 89.1 µM [inhibitor, partial curve, poor fit] | –
COC(=O)c1cc(-c2ccc(C)cc2)n[nH]1 | inconclusive: 1.26 µM [inhibitor, full curve, poor fit] | –
Cc1ccc(C)c(S(=O)(=O)N/N=C/c2ccc(F)cc2)c1 | inconclusive: 0.631 µM [inhibitor, full curve, poor fit] | –
O=c1cc(-c2c(F)c(F)c(F)c(F)c2F)oc2c(F)c(F)c(F)c(F)c12 | inconclusive: 1.12 µM [inhibitor, full curve] | –
CC1=N/C(=C/c2ccco2)C(=O)O1 | active: 10 µM | –
O=C(O)c1cc(N/N=C/c2ccc(N3CCOCC3)cc2)ccc1Cl | inconclusive: 70.8 µM [inhibitor, single point] | –
Cc1cc(C)n(-c2ccc(Oc3ccccc3)c(S(=O)(=O)O)c2)n1 | inconclusive: 25.1 µM [inhibitor, full curve] | –
COc1cc(NC(=O)c2cc(C3CC3)nc3c2c(C)nn3-c2ccc(C)cc2)cc(OC)c1 | – | inactive: 26.1%
N#Cc1c(-c2ccco2)nc(SCC(=O)Nc2cccc(Cl)c2)[nH]c1=O | active: 56.2 µM | –
Cc1ccc(S(=O)(=O)c2nc(-c3ccco3)oc2SC(C)c2ccccc2)cc1 (stereo not drawn) | inconclusive: 20 µM [inhibitor, partial curve] | –
